In publication PMC8668097:
Results are given in words; binding and its absence hold for the method and conditions named. Binding seen in cells or lysates may run through a third protein. A result given as binding can be weak or reduced; the word gives no strength. Sequences can lack the tags named with a protein.

What was measured:
[1] = biological target: T1, Arabidopsis cpSRP54-cYFP (Arabidopsis) (UniProt P37107); test: split reporter; BiFC: full-length coding regions fused to nYFP or cYFP, agroinfiltrated into N. benthamiana, confocal imaging at 2 dpi; cpSRP54 with AOC.1 also in TuMV-infected plants
T1 sequence: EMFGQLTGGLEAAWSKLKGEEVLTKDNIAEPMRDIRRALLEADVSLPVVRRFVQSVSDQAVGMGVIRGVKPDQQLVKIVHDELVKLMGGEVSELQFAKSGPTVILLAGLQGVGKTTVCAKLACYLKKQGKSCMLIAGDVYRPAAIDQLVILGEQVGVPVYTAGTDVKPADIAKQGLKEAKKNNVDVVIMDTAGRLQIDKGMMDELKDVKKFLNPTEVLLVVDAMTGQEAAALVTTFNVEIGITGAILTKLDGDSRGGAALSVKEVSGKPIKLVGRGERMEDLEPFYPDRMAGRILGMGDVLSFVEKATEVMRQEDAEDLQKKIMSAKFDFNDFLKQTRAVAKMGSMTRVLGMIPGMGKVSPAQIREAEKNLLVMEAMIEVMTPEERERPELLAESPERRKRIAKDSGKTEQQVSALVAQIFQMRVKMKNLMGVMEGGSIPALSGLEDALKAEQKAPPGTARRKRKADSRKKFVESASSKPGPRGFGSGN

rice cpSRP54-cYFP (rice) = test: as above

| Molecule | binding [1] | binding (rice cpSRP54-cYFP (rice)) |
| --- | --- | --- |
| Arabidopsis AOC-nYFP (enzyme) | binds |  |
| rice AOC-nYFP (enzyme, UniProt Q75KD7 50-240) ASLFSPKPATPKDARPAKVQEMFVYEINERDRESPAYLRLSAKQTENALGDLVPFTNKLYSGSLDKRLGISAGICILIQHVPERNGDRYEAIYSFYFGDYGHISVQGPYLTYEESYLAVTGGSGVFEGAYGQVKLNQIVFPFKIFYTFYLKGIPDLPRELLCTPVPPSPTVEPTPAAKATEPHACLNNFTN |  | binds |
